# Reference: the supplement of paper PMC3334620
# The full ranking holds about 33,000 sequences; the median of “E-score (-0.5 to 0.5)” is about -0.015, and the highest 2% start at about 0.3. Some of the results follow.
# Biological target: T1, Abf1 (UniProt P14164)
# T1 sequence: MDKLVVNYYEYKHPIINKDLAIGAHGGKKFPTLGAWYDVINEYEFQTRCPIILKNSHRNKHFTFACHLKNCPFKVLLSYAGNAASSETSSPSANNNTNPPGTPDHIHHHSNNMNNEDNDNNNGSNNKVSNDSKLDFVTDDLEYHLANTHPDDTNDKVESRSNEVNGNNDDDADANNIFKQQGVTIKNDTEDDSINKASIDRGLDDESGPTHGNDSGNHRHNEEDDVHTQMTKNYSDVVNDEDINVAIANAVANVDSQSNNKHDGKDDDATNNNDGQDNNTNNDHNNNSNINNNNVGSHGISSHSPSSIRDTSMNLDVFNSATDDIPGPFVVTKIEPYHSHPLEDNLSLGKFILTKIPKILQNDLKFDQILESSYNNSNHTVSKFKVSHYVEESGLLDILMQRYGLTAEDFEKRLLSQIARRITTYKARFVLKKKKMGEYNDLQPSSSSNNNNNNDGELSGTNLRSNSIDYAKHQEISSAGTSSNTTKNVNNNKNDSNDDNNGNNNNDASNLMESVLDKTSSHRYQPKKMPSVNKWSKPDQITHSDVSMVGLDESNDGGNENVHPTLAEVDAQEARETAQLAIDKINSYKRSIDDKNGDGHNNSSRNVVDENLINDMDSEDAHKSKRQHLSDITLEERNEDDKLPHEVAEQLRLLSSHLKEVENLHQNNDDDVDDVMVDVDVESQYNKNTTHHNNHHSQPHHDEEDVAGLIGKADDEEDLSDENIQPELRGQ
# Experiment: PBM E-score (8-mer binding enrichment) (E-score (-0.5 to 0.5)); higher = stronger / more preferred TF binding
# Details: protein concentration: 200 nM; construct: GST-full length
# Summary of the method: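 E-scores (a modified Wilcoxon-Mann-Whitney statistic) were assigned by the Universal PBM Analysis Suite to every ungapped eight-base word pooled with its reverse complement. The input came from universal all-10-mer Agilent arrays made double-stranded by primer extension and probed with GST-tagged yeast transcription factors at about 100-200 nM. Fluorescent anti-GST detected bound protein, and masliner normalised the scans.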
row,Sequence,PBM E-score
1,AGGTCTGG,-0.199
2,CGGTGCGC,-0.271
3,CACTGCTC,-0.0279
4,CACGTCTA,0.166
5,GGTTATAC,0.0965
6,AATCACTG,0.204
7,GTATGAAC,-0.0505
8,AATCTTTC,0.159
9,GCACCCTA,-0.149
10,AATCCGTA,0.214
11,GACATACC,0.112
12,ATACACTG,-0.163
13,ACACTCGG,0.0882
14,GCTGGGAC,-0.122
15,GGGACTGA,-0.222
16,CTGGATGA,0.0651
17,CCGCTAGA,-0.23
18,AGAAAGCT,-0.0217
19,AGTAGGAG,-0.255
20,GGGGTAAA,-0.0666
21,AGAAGGTG,0.00925
22,ACGGACCT,0.0844

row,Sequence,PBM E-score
1,GGCGGGCA,-0.0513
2,AGGAAGCG,-0.0323
3,AACAGTCC,-0.295
4,AGATCGCA,0.0409
5,TCAGATAA,0.119
6,AGGCATCA,-0.155
7,CGAAGAGA,0.00312
8,ACGCCCAG,-0.226
9,CGCCGACC,-0.183
10,CCGCACCC,-0.229
11,CAACAACA,0.0233
12,GTAGTAGA,0.0877
13,CGCCAGCA,-0.106
14,TATATGCA,0.0345
15,AGTACGAA,0.368
16,TAGTCGAA,-0.0557
17,GCTGGCGA,-0.155
18,ATGCCTCA,-0.00924
19,CGGAGCAG,-0.0605
20,CAGTGGAC,0.0873
21,ATTATAGC,0.121
22,ATGCCACC,-0.148

row,Sequence,PBM E-score
1,CGGCGAGA,-0.0282
2,CTACATAC,0.093
3,ATGCGTAG,-0.0981
4,ACGATACT,0.285
5,AATGCCAG,-0.155
6,CCTGCATC,-0.0146
7,CCGGCCAA,0.0306
8,GTCGTTCA,0.26
9,GATTTAAC,0.0538
10,CTACGGCA,0.291
11,ATTATCCA,0.258
12,CTGTGTTA,0.134
13,GGTTTCTA,-0.0874
14,GGTGTAAA,-0.142
15,CTACACTA,0.0167
16,CACGTTAC,0.0218
17,CTTACTTA,-0.0806
18,CTGTAGGC,-0.263
19,TCTCATCA,0.145
20,ATTAATCG,0.15
21,ATCACTTA,0.355
22,GTGGGGCA,-0.175

row,Sequence,PBM E-score
1,GGCTCTGA,-0.0571
2,AATTGTGG,-0.0845
3,ACAGGTCG,-0.0539
4,AACCAACC,-0.119
5,ATAGTTAC,0.0283
6,GAAAGCAA,-0.0239
7,ACACGATA,0.295
8,GACCTAAA,0.0819
9,AGGTAGGA,-0.0462
10,CTAGGGAG,-0.257
11,TGGTCCAA,-0.196
12,GGGCCCCC,-0.462
13,TGAGCGAA,0.121
14,AACCCCGA,-0.00484
15,CCGTAAGA,0.168
16,CTAGAACA,0.0949
17,ACCTTAGC,-0.111
18,CTGGCTGA,0.0491
19,GTGTAGTA,0.0449
20,AACGTCGT,0.234

# Random excerpt: 6 records from the list, in no set order.
row,Sequence,PBM E-score
20,ATTAATCG,0.15
8,GACCTAAA,0.0819
18,AGAAAGCT,-0.0217
13,ACACTCGG,0.0882
7,CCGGCCAA,0.0306
20,AACGTCGT,0.234
